Assay results: US11590093B2, “Kit, composition, and combination therapy for fragile X syndrome” (priority 2018, dated 2023)
At least one structure is not confirmed: it was looked up by name or label, or the drawing left a doubt.

Test system: Fmr1 KO2 mice
Assay: Social interaction, three-chambered sociability task
Format: in vivo
Conditions: osmotic minipumps s.c. 15 days, sulindac 5 mg/kg, metoprolol 10 mg/kg, ibudilast 3 mg/kg, sertraline 1 mg/kg, quercetin 1 mg/kg (100 mg/kg in combination), cannabidiol 5 mg/kg

In the case of CC(C)C(=O)c1c(C(C)C)nn2ccccc12 [ibudilast], the “Sociability (exploration of novel mouse)” value is reported as “neither sulindac nor ibudilast alone rescues sociability”.
